Results as given in article PMC6458711.

T1: Transketolase (TKT) wild type, Flag-tagged (human) (UniProt P29401)
T1 sequence: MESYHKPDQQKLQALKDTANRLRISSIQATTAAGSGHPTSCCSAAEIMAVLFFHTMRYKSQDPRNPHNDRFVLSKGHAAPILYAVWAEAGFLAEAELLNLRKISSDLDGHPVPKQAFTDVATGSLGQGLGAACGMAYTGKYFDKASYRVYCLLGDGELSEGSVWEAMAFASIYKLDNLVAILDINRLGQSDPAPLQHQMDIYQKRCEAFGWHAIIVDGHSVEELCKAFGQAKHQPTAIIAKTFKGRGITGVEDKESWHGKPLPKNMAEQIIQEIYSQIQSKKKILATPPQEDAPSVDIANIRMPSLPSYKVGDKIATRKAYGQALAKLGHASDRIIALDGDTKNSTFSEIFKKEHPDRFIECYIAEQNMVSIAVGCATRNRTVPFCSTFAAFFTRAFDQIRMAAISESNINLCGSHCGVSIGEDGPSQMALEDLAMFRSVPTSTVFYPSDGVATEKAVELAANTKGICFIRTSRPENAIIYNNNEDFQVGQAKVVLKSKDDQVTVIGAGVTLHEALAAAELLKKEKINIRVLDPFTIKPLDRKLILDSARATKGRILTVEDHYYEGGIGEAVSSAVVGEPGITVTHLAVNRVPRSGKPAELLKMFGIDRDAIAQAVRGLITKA

B1: nucleoporin 54 (NUP54) (protein, UniProt Q7Z3B4 1-507)
chain: MAFNFGAPSGTSGTAAATAAPAGGFGGFGTTSTTAGSAFSFSAPTNTGTTGLFGGTQNKGFGFGTGFGTTTGTSTGLGTGLGTGLGFGGFNTQQQQQTTLGGLFSQPTQAPTQSNQLINTASALSAPTLLGDERDAILAKWNQLQAFWGTGKGYFNNNIPPVEFTQENPFCRFKAVGYSCMPSNKDEDGLVVLVFNKKETEIRSQQQQLVESLHKVLGGNQTLTVNVEGTKTLPDDQTEVVIYVVERSPNGTSRRVPATTLYAHFEQANIKTQLQQLGVTLSMTRTELSPAQIKQLLQNPPAGVDPIIWEQAKVDNPDSEKLIPVPMVGFKELLRRLKVQDQMTKQHQTRLDIISEDISELQKNQTTSVAKIAQYKRKLMDLSHRTLQVLIKQEIQRKSGYAIQADEEQLRVQLDTIQGELNAPTQFKGRLNELMSQIRMQNHFGAVRSEERYYIDADLLREIKQHLKQQQEGLSHLISIIKDDLEDIKLVEHGLNETIHIRGGVFS
B2: nuclear factor kappa B subunit 2 (NFKB2) (protein, UniProt Q00653 1-900)
chain: MESCYNPGLDGIIEYDDFKLNSSIVEPKEPAPETADGPYLVIVEQPKQRGFRFRYGCEGPSHGGLPGASSEKGRKTYPTVKICNYEGPAKIEVDLVTHSDPPRAHAHSLVGKQCSELGICAVSVGPKDMTAQFNNLGVLHVTKKNMMGTMIQKLQRQRLRSRPQGLTEAEQRELEQEAKELKKVMDLSIVRLRFSAFLRASDGSFSLPLKPVISQPIHDSKSPGASNLKISRMDKTAGSVRGGDEVYLLCDKVQKDDIEVRFYEDDENGWQAFGDFSPTDVHKQYAIVFRTPPYHKMKIERPVTVFLQLKRKRGGDVSDSKQFTYYPLVEDKEEVQRKRRKALPTFSQPFGGGSHMGGGSGGAAGGYGGAGGGGSLGFFPSSLAYSPYQSGAGPMGCYPGGGGGAQMAATVPSRDSGEEAAEPSAPSRTPQCEPQAPEMLQRAREYNARLFGLAQRSARALLDYGVTADARALLAGQRHLLTAQDENGDTPLHLAIIHGQTSVIEQIVYVIHHAQDLGVVNLTNHLHQTPLHLAVITGQTSVVSFLLRVGADPALLDRHGDSAMHLALRAGAGAPELLRALLQSGAPAVPQLLHMPDFEGLYPVHLAVRARSPECLDLLVDSGAEVEATERQGGRTALHLATEMEELGLVTHLVTKLRANVNARTFAGNTPLHLAAGLGYPTLTRLLLKAGADIHAENEEPLCPLPSPPTSDSDSDSEGPEKDTRSSFRGHTPLDLTCSTKVKTLLLNAAQNTMEPPLTPPSPAGPGLSLGDTALQNLEQLLDGPEAQGSWAELAERLGLRSLVDTYRQTTSPSGSLLRSYELAGGDLAGLLEALSDMGLEEGVRLLRGPETRDKLPSTAEVKEDSAYGSQSVEQEAEKLGPPPEPPGGLCHGHPQPQVH
B3: nucleoporin 160 (NUP160) (protein, UniProt Q12769 1-1436)
chain: MLHLSAAPPAPPPEVTATARPCLCSVGRRGDGGKMAAAGALERSFVELSGAERERPRHFREFTVCSIGTANAVAGAVKYSESAGGFYYVESGKLFSVTRNRFIHWKTSGDTLELMEESLDINLLNNAIRLKFQNCSVLPGGVYVSETQNRVIILMLTNQTVHRLLLPHPSRMYRSELVVDSQMQSIFTDIGKVDFTDPCNYQLIPAVPGISPNSTASTAWLSSDGEALFALPCASGGIFVLKLPPYDIPGMVSVVELKQSSVMQRLLTGWMPTAIRGDQSPSDRPLSLAVHCVEHDAFIFALCQDHKLRMWSYKEQMCLMVADMLEYVPVKKDLRLTAGTGHKLRLAYSPTMGLYLGIYMHAPKRGQFCIFQLVSTESNRYSLDHISSLFTSQETLIDFALTSTDIWALWHDAENQTVVKYINFEHNVAGQWNPVFMQPLPEEEIVIRDDQDPREMYLQSLFTPGQFTNEALCKALQIFCRGTERNLDLSWSELKKEVTLAVENELQGSVTEYEFSQEEFRNLQQEFWCKFYACCLQYQEALSHPLALHLNPHTNMVCLLKKGYLSFLIPSSLVDHLYLLPYENLLTEDETTISDDVDIARDVICLIKCLRLIEESVTVDMSVIMEMSCYNLQSPEKAAEQILEDMITIDVENVMEDICSKLQEIRNPIHAIGLLIREMDYETEVEMEKGFNPAQPLNIRMNLTQLYGSNTAGYIVCRGVHKIASTRFLICRDLLILQQLLMRLGDAVIWGTGQLFQAQQDLLHRTAPLLLSYYLIKWGSECLATDVPLDTLESNLQHLSVLELTDSGALMANRFVSSPQTIVELFFQEVARKHIISHLFSQPKAPLSQTGLNWPEMITAITSYLLQLLWPSNPGCLFLECLMGNCQYVQLQDYIQLLHPWCQVNVGSCRFMLGRCYLVTGEGQKALECFCQAASEVGKEEFLDRLIRSEDGEIVSTPRLQYYDKVLRLLDVIGLPELVIQLATSAITEAGDDWKSQATLRTCIFKHHLDLGHNSQAYEALTQIPDSSRQLDCLRQLVVVLCERSQLQDLVEFPYVNLHNEVVGIIESRARAVDLMTHNYYELLYAFHIYRHNYRKAGTVMFEYGMRLGREVRTLRGLEKQGNCYLAALNCLRLIRPEYAWIVQPVSGAVYDRPGASPKRNHDGECTAAPTNRQIEILELEDLEKECSLARIRLTLAQHDPSAVAVAGSSSAEEMVTLLVQAGLFDTAISLCQTFKLPLTPVFEGLAFKCIKLQFGGEAAQAEAWAWLAANQLSSVITTKESSATDEAWRLLSTYLERYKVQNNLYHHCVINKLLSHGVPLPNWLINSYKKVDAAELLRLYLNYDLLEEAVDLVSEYVDAVLGKGHQYFGIEFPLSATAPMVWLPYSSIDQLLQALGENSANSHNIALSQKILDKLEDYQQKVDKATRDLLYRRTL

The binders below were run against T1, Transketolase (TKT) wild type, Flag-tagged (human) (assay: affinity purification with mass spectrometry; cross-linking Co-IP/MS: Huh7 stable cells fixed with 0.5% formaldehyde for 8 min at RT; nuclear pellets lysed in 50 mM HEPES/KOH pH 7.5, 500 mM NaCl, 1% Triton X-100, 1 mM EDTA, 0.1% SDS; TKT antibody and Protein G Dynabeads; LC-MS/MS; a protein counted as TKT-WT unique if more than 5-fold over vector control and K6R).

binding, binds:
B1
B2
B3

No constants are given. Whether binding was seen depends on the method and setting. In cells and extracts the contact can be indirect. Here binding means that the protein was enriched with, or labelled near, the bait; the list need not be complete. Tags and fused reporters may be left off the sequences shown.
